# Percent effect of library compounds

Sequences of proteins named here, by UniProt entry; tags and fusion partners are left off.
UniProt P9WPC5, whole entry: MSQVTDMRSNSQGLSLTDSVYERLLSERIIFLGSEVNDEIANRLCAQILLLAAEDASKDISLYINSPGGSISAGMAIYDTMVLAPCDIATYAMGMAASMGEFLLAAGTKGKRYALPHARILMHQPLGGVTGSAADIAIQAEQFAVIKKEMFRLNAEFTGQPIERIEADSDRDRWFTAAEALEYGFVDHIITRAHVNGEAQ
UniProt P9WPC3, whole entry partner: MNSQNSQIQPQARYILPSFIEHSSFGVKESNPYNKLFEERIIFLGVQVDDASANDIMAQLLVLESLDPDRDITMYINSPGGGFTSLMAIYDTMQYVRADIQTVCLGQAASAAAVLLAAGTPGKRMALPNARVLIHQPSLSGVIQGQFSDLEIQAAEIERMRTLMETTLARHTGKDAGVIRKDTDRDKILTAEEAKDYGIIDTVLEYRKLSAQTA
UniProt P9WFT3, whole entry: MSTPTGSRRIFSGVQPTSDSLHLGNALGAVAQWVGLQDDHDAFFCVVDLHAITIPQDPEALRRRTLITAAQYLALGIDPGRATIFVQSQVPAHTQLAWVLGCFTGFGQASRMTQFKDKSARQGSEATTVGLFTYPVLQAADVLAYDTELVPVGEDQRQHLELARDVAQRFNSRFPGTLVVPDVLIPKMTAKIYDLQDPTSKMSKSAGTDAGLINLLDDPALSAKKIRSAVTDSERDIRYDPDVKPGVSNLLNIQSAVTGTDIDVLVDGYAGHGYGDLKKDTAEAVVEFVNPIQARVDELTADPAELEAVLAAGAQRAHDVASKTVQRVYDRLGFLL

Data taken from ChEMBL document CHEMBL3988442, “University of Dundee, Small-Polar-MMV Screening Library” (2021).

A: 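Protease assay of ClpP1P2, read by the AMC dye that it sets free. Target: ClpP1P2, Mycobacterium tuberculosis (UniProt P9WPC5 and UniProt P9WPC3). Tested at 50 µM. Direction is inferred from only a few compounds that gave an IC50; most scored high, so higher reads as stronger inhibition. Most other retested compounds had strongly negative values. Size under these conditions: about 69,000 compounds, about 10 of them at 50% or above in at least one test.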
B: 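Tryptophan-tRNA ligase, Mycobacterium tuberculosis (UniProt P9WFT3). Enzyme assay of tryptophanyl-tRNA synthetase; the read-out is not stated. Tested at 10 µM. Direction is not recorded; retested compounds ran higher, which suggests that high means inhibition. Of about 65,000 compounds tested this way, about 64 (0.098%) reached 50% or more in at least one test.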

Results are given as percent effect. The controls that fix the scale are not given in the record; negative values are as filed. The compounds are a random part of those screened. A dash means the value is not listed here; it may have been measured.

| compound | A | B |
|---|---|---|
| `Fc1cnc(N2CCOCC3(CCCN(c4cnccn4)C3)C2)nc1` (configuration not stated) | -7.201 | -1.803 |
| `Cc1ncc(CN2CCOC(c3ccc(-c4cc[nH]n4)cn3)C2)s1` (configuration not stated) | 8.772 | -2.029 |
| `CCOC(=O)CSc1nnc(C(N)CC(C)C)o1` (configuration not stated) | -12.47 | -0.6958 |
| `Cc1nn(C)c(C)c1C1CCCN1C(=O)CCc1cscn1` (configuration not stated) | -2.102 | -2.437 |
| `Cc1cc(C)cc(C(C)NC(=O)c2ccc(CS(C)(=O)=O)o2)c1` (configuration not stated) | -7.085 | -0.3894 |
| `Cc1csc(C2CCCCN2C(=O)CN(C)C2CC2)n1` (configuration not stated) | -2.593 | -2.827 |
| `COc1ccc(C(=O)CN(C2=NCCCCC2)c2ccccc2)cc1` | -14.56 | 1.431 |
| `CC(C)NC(=O)C[C@@H]1CCNC[C@@H]1Cc1cc(-c2ccccc2)on1` | -19.31 | 1.208 |
| `CCO[C@@H]1CC[C@H]2[C@H]1OCCN2C(=O)CC1=CCCCC1` | -0.3303 | - |
| `CN(Cc1nc(N)c2ccccc2n1)C1CCCN(c2cccnn2)C1` (configuration not stated) | -7.644 | 2.318 |
| `Cc1ccc(NC(=O)CN(C)C(=O)c2ccc(-n3cccc3)nc2)nc1` | -9.645 | -5.317 |
| `CN(C)C(=O)C1CN(Cc2ccc(C#N)cc2)c2ccccc2O1` (configuration not stated) | -2.414 | 1.122 |
| `O=C(CCc1ccccn1)N1CCCN(C(=O)CC2CCCC2)CC1` | -10.06 | 0.3762 |
| `c1ccc2oc(CN3CCCC(Cn4cncn4)C3)nc2c1` (configuration not stated) | -29.78 | 6.193 |
| `CN(C)C(=O)C1CCCN1CCCNC(=O)c1ccccc1F` (configuration not stated) | -2.786 | 3.207 |
| `N#Cc1cnc(NCCCN2C(=O)COc3ccccc32)c(Cl)c1` | -2.944 | 0.6731 |
| `Cc1nc(C2CCCN(C(=O)c3ccnc(N(C)C)c3)C2)no1` (configuration not stated) | -24.95 | -7.41 |
| `CCn1cc(N2Cc3nc(N4CCOCC4)ncc3C2=O)cn1` | 4.09 | 3.819 |
| `CC(C(=O)NCCN1CCCCCC1)n1cncn1` (configuration not stated) | -3.54 | 1.267 |
| `CC(NC(=O)CSCC(N)=O)c1ccc(Oc2ccccc2)cc1` (configuration not stated) | -0.1887 | -2.225 |
| `COc1ccccc1NCC(=O)Nc1cnn(Cc2ccccn2)c1` | 9.404 | -4.175 |
| `O=C1C[C@H]2[C@H](CCN2C(=O)c2ccno2)N1CC1CC1` | 1.432 | - |
| `Cc1ccc(OCC(=O)NCc2sccc2C)nc1` | -11.37 | -1.481 |
| `Cc1cccnc1NC(=O)NC(CCO)C(C)(C)C` (configuration not stated) | 9.98 | -0.8777 |
| `Cc1nccn1CCCNc1ccc(Cl)c(C#N)n1` | 0.3073 | 3.671 |
| `CN(Cc1ccccc1O)CC1CCCN(CCc2ccc(Cl)cc2)C1` (configuration not stated) | -13.24 | 4.641 |
| `CCNC(=O)CCC(=O)NC1(c2cccc(Br)c2)CC1` | -10.6 | -2.557 |
| `CCn1c(C)nnc1SCCNC(=O)c1cccc2ccnn12` | -28.55 | 9.213 |
| `CS(=O)(=O)NCCNC(=O)NC1(c2ccc(Cl)cc2)CCC1` | -2.581 | 3.056 |
| `CSCCC(NC(=O)c1ccc2ccccc2n1)C(=O)NC1CC1` (configuration not stated) | -1.247 | -5.04 |
| `O=C(NCC1CC1)[C@@H]1C[C@@H]2OCCN[C@@H]2C1` | -4.813 | -5.236 |
| `CC(=O)N1CCN(C(=O)C(C)OCC(F)(F)F)CC1` (configuration not stated) | 16.53 | -1.414 |
| `COC(=O)CN1CC2(CCNCC2)COc2ccccc2S1(=O)=O` | -1.42 | 2.351 |
| `CNC(=O)[C@H]1C[C@@H]2CCN(CCc3ccccc3)C[C@@H]2O1` | 0.4326 | 0.834 |
| `CCc1noc(C(C)N2CCN(CC)CC2)n1` (configuration not stated) | -17.77 | -3.159 |
| `CN1CCN(CC2CC2)C(=O)c2cnc(N3CCOCC3)nc21` | -4.551 | - |
| `O=C(NCCO)NC(c1ccccc1)c1ccc2c(c1)CCCO2` (configuration not stated) | -5.07 | 0.143 |
| `Cn1nccc1-c1nnn2c1COCC(CNC1CCOCC1)C2` (configuration not stated) | -16.25 | - |
| `O=C(CN1CCOC1=O)N1CCC2(CCc3ccccc32)CC1` | 11.3 | 6.101 |
| `Cc1ncncc1-c1ccnc(NC(C)C)n1` | -10.3 | - |
| `c1coc(-c2nnc(CN3CCCC(CN4CCCCCC4)C3)o2)c1` (configuration not stated) | -3.233 | 1.165 |
| `O=C(O)c1cnc(N2CCCC2)nc1COc1ccccc1` | 17.02 | 3.641 |
| `Cc1nc2c(C)cccc2cc1C(=O)N1CCC2(CC1)NCCNC2=O` | -1.183 | -1.768 |
| `CC(C)c1ccc(NS(=O)(=O)CC2=NC(=O)n3cccc3C2=O)cc1` | -8.127 | -2.311 |
| `COC(=O)Cn1c(=O)nc2n1C(=O)N(c1cccc(C)c1)C2` | -3.388 | -3.214 |
| `Cc1nnc([C@]23COC[C@H]2CN(S(=O)(=O)c2cccnc2)C3)o1` | -0.2262 | - |
| `COCCN1CC[C@H]2CN(c3cc(OC)ncn3)C[C@@H]2C1=O` | -3.045 | 13.27 |
| `N#Cc1cc(NS(=O)(=O)CC2CCCCO2)ccc1F` (configuration not stated) | -12.04 | -0.07886 |
| `C/C=C(/C)C(=O)NS(=O)(=O)c1ccc(C(F)(F)F)cn1` | 3.802 | -0.4854 |
| `COc1cc(N2CCC3(CCN(Cc4nccs4)CC3)C2)ncn1` | -5.269 | - |

4 of the entries, repeated:

Result for CCO[C@@H]1CC[C@H]2[C@H]1OCCN2C(=O)CC1=CCCCC1 was A: -0.3303%.
Result for CCOC(=O)CSc1nnc(C(N)CC(C)C)o1 (configuration not stated) was A: -12.47%; B: -0.6958%.
Result for O=C1C[C@H]2[C@H](CCN2C(=O)c2ccno2)N1CC1CC1 was A: 1.432%.
Result for COc1cc(N2CCC3(CCN(Cc4nccs4)CC3)C2)ncn1 was A: -5.269%.